Publication PMC10193809, “A small protein coded within the mitochondrial canonical gene nd4 regulates mitochondrial bioenergetics” (BMC Biology, 2023)
These are yes or no findings as the source states them, for the method shown. In cells and extracts the contact can be indirect. Some entries that bind do so weakly or less than the wild type. Where a sequence is shown, tags or fusion partners need not be part of it.

Protein sequences, listed by entry. Tags and fused reporters are not part of them. Residues count along the entry.
UniProt Q07021, residues 74-282: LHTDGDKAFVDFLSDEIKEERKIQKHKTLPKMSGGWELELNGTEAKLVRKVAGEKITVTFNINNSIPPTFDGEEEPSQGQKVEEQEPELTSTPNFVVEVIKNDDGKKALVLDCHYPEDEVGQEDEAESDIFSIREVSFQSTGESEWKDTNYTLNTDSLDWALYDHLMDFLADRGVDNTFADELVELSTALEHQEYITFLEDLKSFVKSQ

Molecular target: T1, GST-MTALTND4 (human)
T1 sequence: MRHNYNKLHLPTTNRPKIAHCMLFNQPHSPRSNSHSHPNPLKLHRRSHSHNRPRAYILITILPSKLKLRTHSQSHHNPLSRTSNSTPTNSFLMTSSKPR
Assay: pull-down; GST-MTALTND4 or GST alone on glutathione beads with HeLa or HEK-293T lysate; eluates blotted with anti-C1qbp antibody; only the target purified

binding: binds
Substance: complement component 1q subcomponent binding protein (C1qbp) (from UniProt Q07021 74-282)
